Source: patent US5972639A, “Fluorescence-based assays for measuring cell proliferation” (Irori, priority 1997, dated 1999)
Read-outs that look alike come from different tables or passages of the source.

Tests used:
[1] = system: HUVEC intracellular acid phosphatase; type: biochemical, human
[2] = system: HDMEC intracellular acid phosphatase; assay: acid phosphatase assay of HDMEC with AttoPhos/BBTP; type: biochemical, human; conditions: for S/N (signal-to-noise ratio): A/2 plate
Method: (§1) To establish a relation between acid phosphatase activity and cell numbers, cells were seeded at various densities (50-20,000) onto replicate plastic 96-well plates or half area 96-well microtiter plates (Costar) and incubated at 37° C. for 3.5 hours to allow attachment. Cell number was then assessed by measuring intracellular acid phosphatase with three different substrates: p-nitrophenyl phosphate, which has a calorimetric endpoint, 4-methylumbelliferyl phosphate (MUP) and 2'-[2-benzthiazoyl]-6'-hydoxybenzothiazole phosphate bis-[2-amino-2-methyl-13-propanediol] salt (AttoPhos™), which have fluorometric endpoints.
(§2) Plates were incubated for 1 hour at room temperature and the reaction was terminated with 50 μL of stop solution (240 mM diethanolamine, pH 10). Fluorescence was measured at excitation wavelength of 450 nm and emission wavelength of 580 nm using a fluorimeter (Cytofluor 4000, PerSeptive Biosystems). Nonenzymatic hydrolysis was determined in wells containing no cells and subtracted from the experimental values. Since the background is subtracted, in general, the actual signal to noise ratios at lower cell numbers is better than what presented in the table.

[3] = system: CHO-K1 acid phosphatase; assay: acid phosphatase assay of CHO-K1 with AttoPhos/BBTP; type: biochemical, Chinese hamster; conditions: A/2 plate
Method: as §1, §2

With O=P(O)(O)Oc1ccc2nc(-c3nc4ccccc4s3)sc2c1 [BBTP, 2'(2-benzothiazoyl)-6'-hydroxy-benzthiazole phosphate] the “S/N (signal-to-noise ratio)” value ([1]; 625 HUVEC/well, 96-well plate, AttoPhos 250 μM) was 20, the “S/N (signal-to-noise ratio)” value ([1]; 625 HUVEC/well, 96-well plate, AttoPhos 500 μM) was 20 and the “S/N (signal-to-noise ratio)” value ([1]; 625 HUVEC/well, half area 96-well (A/2) plate, AttoPhos 250 μM) was 3.4. The “S/N (signal-to-noise ratio)” value ([1]; 625 HUVEC/well, half area 96-well (A/2) plate, AttoPhos 500 μM) was 3.4, the “S/N (signal-to-noise ratio)” value ([1]; 1,250 HUVEC/well, 96-well plate, AttoPhos 250 μM) was 34 and the “S/N (signal-to-noise ratio)” value ([1]; 1,250 HUVEC/well, 96-well plate, AttoPhos 500 μM) was 35. The “S/N (signal-to-noise ratio)” value ([1]; 1,250 HUVEC/well, half area 96-well (A/2) plate, AttoPhos 250 μM) was 6.3, the “S/N (signal-to-noise ratio)” value ([1]; 1,250 HUVEC/well, half area 96-well (A/2) plate, AttoPhos 500 μM) was 6.2 and the “S/N (signal-to-noise ratio)” value ([1]; 2,500 HUVEC/well, 96-well plate, AttoPhos 250 μM) was 60. The “S/N (signal-to-noise ratio)” value ([1]; 2,500 HUVEC/well, 96-well plate, AttoPhos 500 μM) was 66, the “S/N (signal-to-noise ratio)” value ([1]; 2,500 HUVEC/well, half area 96-well (A/2) plate, AttoPhos 250 μM) was 12.1 and the “S/N (signal-to-noise ratio)” value ([1]; 2,500 HUVEC/well, half area 96-well (A/2) plate, AttoPhos 500 μM) was 11.6. The “S/N (signal-to-noise ratio)” value ([1]; 5,000 HUVEC/well, 96-well plate, AttoPhos 250 μM) was 127, the “S/N (signal-to-noise ratio)” value ([1]; 5,000 HUVEC/well, 96-well plate, AttoPhos 500 μM) was 133 and the “S/N (signal-to-noise ratio)” value ([1]; 5,000 HUVEC/well, half area 96-well (A/2) plate, AttoPhos 250 μM) was 23.4. The “S/N (signal-to-noise ratio)” value ([1]; 5,000 HUVEC/well, half area 96-well (A/2) plate, AttoPhos 500 μM) was 24, the “S/N (signal-to-noise ratio)” value ([1]; 10,000 HUVEC/well, 96-well plate, AttoPhos 250 μM) was 249 and the “S/N (signal-to-noise ratio)” value ([1]; 10,000 HUVEC/well, 96-well plate, AttoPhos 500 μM) was 272. The “S/N (signal-to-noise ratio)” value ([1]; 10,000 HUVEC/well, half area 96-well (A/2) plate, AttoPhos 250 μM) was 46.9, the “S/N (signal-to-noise ratio)” value ([1]; 10,000 HUVEC/well, half area 96-well (A/2) plate, AttoPhos 500 μM) was 46.7 and the “S/N (signal-to-noise ratio)” value ([1]; 20,000 HUVEC/well, 96-well plate, AttoPhos 250 μM) was 456. The “S/N (signal-to-noise ratio)” value ([1]; 20,000 HUVEC/well, 96-well plate, AttoPhos 500 μM) was 494, the “S/N (signal-to-noise ratio)” value ([1]; 20,000 HUVEC/well, half area 96-well (A/2) plate, AttoPhos 250 μM) was 84.7 and the “S/N (signal-to-noise ratio)” value ([1]; 20,000 HUVEC/well, half area 96-well (A/2) plate, AttoPhos 500 μM) was 82. The “S/N (signal-to-noise ratio)” value ([2]; 50 HDMEC/well, AttoPhos 100 μM) was 4.8, the “S/N (signal-to-noise ratio)” value ([2]; 50 HDMEC/well, AttoPhos 250 μM) was 9.1 and the “S/N (signal-to-noise ratio)” value ([2]; 50 HDMEC/well, AttoPhos 500 μM) was 9.3. For the same compound, the “S/N (signal-to-noise ratio)” value ([2]; 100 HDMEC/well, AttoPhos 100 μM) was 9.4, the “S/N (signal-to-noise ratio)” value ([2]; 100 HDMEC/well, AttoPhos 250 μM) was 13.8 and the “S/N (signal-to-noise ratio)” value ([2]; 100 HDMEC/well, AttoPhos 500 μM) was 12.6. The “S/N (signal-to-noise ratio)” value ([2]; 250 HDMEC/well, AttoPhos 100 μM) was 13.7, the “S/N (signal-to-noise ratio)” value ([2]; 250 HDMEC/well, AttoPhos 250 μM) was 21.2 and the “S/N (signal-to-noise ratio)” value ([2]; 250 HDMEC/well, AttoPhos 500 μM) was 22.8. For the same compound, the “S/N (signal-to-noise ratio)” value ([2]; 500 HDMEC/well, AttoPhos 100 μM) was 21.5, the “S/N (signal-to-noise ratio)” value ([2]; 500 HDMEC/well, AttoPhos 250 μM) was 35.7 and the “S/N (signal-to-noise ratio)” value ([2]; 500 HDMEC/well, AttoPhos 500 μM) was 39.6. The “S/N (signal-to-noise ratio)” value ([2]; 1,000 HDMEC/well, AttoPhos 100 μM) was 38.8, the “S/N (signal-to-noise ratio)” value ([2]; 1,000 HDMEC/well, AttoPhos 250 μM) was 67.8 and the “S/N (signal-to-noise ratio)” value ([2]; 1,000 HDMEC/well, AttoPhos 500 μM) was 60.8. For the same compound, the “S/N (signal-to-noise ratio)” value ([2]; 2,500 HDMEC/well, AttoPhos 100 μM) was 90.9, the “S/N (signal-to-noise ratio)” value ([2]; 2,500 HDMEC/well, AttoPhos 250 μM) was 119.5 and the “S/N (signal-to-noise ratio)” value ([2]; 2,500 HDMEC/well, AttoPhos 500 μM) was 127. The “S/N (signal-to-noise ratio)” value ([2]; 5,000 HDMEC/well, AttoPhos 100 μM) was 163.5, the “S/N (signal-to-noise ratio)” value ([2]; 5,000 HDMEC/well, AttoPhos 250 μM) was 227.4 and the “S/N (signal-to-noise ratio)” value ([2]; 5,000 HDMEC/well, AttoPhos 500 μM) was 211. For the same compound, the “S/N (signal-to-noise ratio)” value ([2]; 10,000 HDMEC/well, AttoPhos 100 μM) was 208.9, the “S/N (signal-to-noise ratio)” value ([2]; 10,000 HDMEC/well, AttoPhos 250 μM) was 363.6 and the “S/N (signal-to-noise ratio)” value ([2]; 10,000 HDMEC/well, AttoPhos 500 μM) was 336.7. The “range in which linearity was maintained” value ([2]; HDMEC, half area 96-well (A/2) plate (Table 5)) was 50-10,000 cells per well, the “optimum pH for the reaction” value ([2]; human dermal microvascular endothelial cells) was roughly 6.5 and the “S/N (signal-to-noise ratio)” value ([3]; 250 CHO-K1/well, AttoPhos 100 μM) was 6. The “S/N (signal-to-noise ratio)” value ([3]; 250 CHO-K1/well, AttoPhos 250 μM) was 5.9, the “S/N (signal-to-noise ratio)” value ([3]; 250 CHO-K1/well, AttoPhos 500 μM) was 4.9 and the “S/N (signal-to-noise ratio)” value ([3]; 500 CHO-K1/well, AttoPhos 100 μM) was 9. For the same compound, the “S/N (signal-to-noise ratio)” value ([3]; 500 CHO-K1/well, AttoPhos 250 μM) was 8.7, the “S/N (signal-to-noise ratio)” value ([3]; 500 CHO-K1/well, AttoPhos 500 μM) was 6.9 and the “S/N (signal-to-noise ratio)” value ([3]; 1,000 CHO-K1/well, AttoPhos 100 μM) was 12.3. For the same compound, the “S/N (signal-to-noise ratio)” value ([3]; 1,000 CHO-K1/well, AttoPhos 250 μM) was 11.2, the “S/N (signal-to-noise ratio)” value ([3]; 1,000 CHO-K1/well, AttoPhos 500 μM) was 9.5 and the “S/N (signal-to-noise ratio)” value ([3]; 2,000 CHO-K1/well, AttoPhos 100 μM) was 23.7. For the same compound, the “S/N (signal-to-noise ratio)” value ([3]; 2,000 CHO-K1/well, AttoPhos 250 μM) was 22.7, the “S/N (signal-to-noise ratio)” value ([3]; 2,000 CHO-K1/well, AttoPhos 500 μM) was 20 and the “S/N (signal-to-noise ratio)” value ([3]; 4,000 CHO-K1/well, AttoPhos 100 μM) was 42.4. The “S/N (signal-to-noise ratio)” value ([3]; 4,000 CHO-K1/well, AttoPhos 250 μM) was 35.9, the “S/N (signal-to-noise ratio)” value ([3]; 4,000 CHO-K1/well, AttoPhos 500 μM) was 32.9 and the “S/N (signal-to-noise ratio)” value ([3]; 8,000 CHO-K1/well, AttoPhos 100 μM) was 84.6. The “S/N (signal-to-noise ratio)” value ([3]; 8,000 CHO-K1/well, AttoPhos 250 μM) was 72, the “S/N (signal-to-noise ratio)” value ([3]; 8,000 CHO-K1/well, AttoPhos 500 μM) was 62.2 and the “S/N (signal-to-noise ratio)” value ([3]; 12,000 CHO-K1/well, AttoPhos 100 μM) was 136. The “S/N (signal-to-noise ratio)” value ([3]; 12,000 CHO-K1/well, AttoPhos 250 μM) was 111.7 and the “S/N (signal-to-noise ratio)” value ([3]; 12,000 CHO-K1/well, AttoPhos 500 μM) was 83.
